Results on 36 targets are retold here after the supplement of paper PMC7666118.

Sequences of proteins named here, by UniProt entry; tags and fusion partners are left off. A change or cut given only in a name is not applied to a line headed by its entry.
UniProt Q9Y3F4: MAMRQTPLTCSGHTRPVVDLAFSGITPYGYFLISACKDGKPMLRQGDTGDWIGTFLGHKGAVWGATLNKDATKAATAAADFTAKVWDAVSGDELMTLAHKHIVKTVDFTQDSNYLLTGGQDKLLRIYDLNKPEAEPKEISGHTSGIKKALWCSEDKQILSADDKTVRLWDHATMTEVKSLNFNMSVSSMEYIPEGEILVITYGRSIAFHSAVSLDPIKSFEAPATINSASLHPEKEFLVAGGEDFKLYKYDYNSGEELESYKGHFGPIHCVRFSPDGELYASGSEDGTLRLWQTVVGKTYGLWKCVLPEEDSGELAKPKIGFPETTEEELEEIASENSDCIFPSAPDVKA
UniProt Q8NBT2: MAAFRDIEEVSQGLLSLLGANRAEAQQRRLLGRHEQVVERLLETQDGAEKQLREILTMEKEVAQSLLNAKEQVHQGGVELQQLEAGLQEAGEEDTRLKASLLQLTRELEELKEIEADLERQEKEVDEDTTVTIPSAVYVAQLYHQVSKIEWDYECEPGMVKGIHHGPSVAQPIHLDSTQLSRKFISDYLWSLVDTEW
UniProt Q9UP52: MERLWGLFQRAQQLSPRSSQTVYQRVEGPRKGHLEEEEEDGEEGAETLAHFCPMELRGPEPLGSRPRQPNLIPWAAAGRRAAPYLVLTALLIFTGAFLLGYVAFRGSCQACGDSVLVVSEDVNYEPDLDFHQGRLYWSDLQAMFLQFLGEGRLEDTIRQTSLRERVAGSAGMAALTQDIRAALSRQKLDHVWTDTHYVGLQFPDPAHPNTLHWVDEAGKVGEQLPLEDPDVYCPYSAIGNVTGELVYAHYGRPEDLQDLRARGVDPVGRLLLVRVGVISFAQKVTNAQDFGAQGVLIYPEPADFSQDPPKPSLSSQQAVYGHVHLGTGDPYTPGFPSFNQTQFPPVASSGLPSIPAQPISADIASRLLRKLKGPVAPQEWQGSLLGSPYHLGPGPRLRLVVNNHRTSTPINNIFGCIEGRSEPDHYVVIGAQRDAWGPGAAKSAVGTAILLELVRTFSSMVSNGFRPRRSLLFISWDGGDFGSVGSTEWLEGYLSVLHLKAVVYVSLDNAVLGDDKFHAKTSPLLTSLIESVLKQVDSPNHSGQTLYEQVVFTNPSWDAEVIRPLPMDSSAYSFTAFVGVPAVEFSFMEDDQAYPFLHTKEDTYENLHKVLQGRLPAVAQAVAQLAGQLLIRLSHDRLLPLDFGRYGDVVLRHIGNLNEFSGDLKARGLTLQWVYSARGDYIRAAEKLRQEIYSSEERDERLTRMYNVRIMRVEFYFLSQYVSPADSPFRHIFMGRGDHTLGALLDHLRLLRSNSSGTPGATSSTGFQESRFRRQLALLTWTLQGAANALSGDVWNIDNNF
UniProt Q9ULZ2: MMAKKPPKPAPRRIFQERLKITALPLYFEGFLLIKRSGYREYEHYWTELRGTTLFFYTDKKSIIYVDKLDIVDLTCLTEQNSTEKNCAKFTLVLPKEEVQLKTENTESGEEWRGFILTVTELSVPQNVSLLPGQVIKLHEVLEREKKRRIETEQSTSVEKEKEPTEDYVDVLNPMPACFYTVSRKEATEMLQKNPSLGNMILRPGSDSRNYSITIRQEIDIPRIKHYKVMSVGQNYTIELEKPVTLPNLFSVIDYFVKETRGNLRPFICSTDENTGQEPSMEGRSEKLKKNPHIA
UniProt Q8TCT8: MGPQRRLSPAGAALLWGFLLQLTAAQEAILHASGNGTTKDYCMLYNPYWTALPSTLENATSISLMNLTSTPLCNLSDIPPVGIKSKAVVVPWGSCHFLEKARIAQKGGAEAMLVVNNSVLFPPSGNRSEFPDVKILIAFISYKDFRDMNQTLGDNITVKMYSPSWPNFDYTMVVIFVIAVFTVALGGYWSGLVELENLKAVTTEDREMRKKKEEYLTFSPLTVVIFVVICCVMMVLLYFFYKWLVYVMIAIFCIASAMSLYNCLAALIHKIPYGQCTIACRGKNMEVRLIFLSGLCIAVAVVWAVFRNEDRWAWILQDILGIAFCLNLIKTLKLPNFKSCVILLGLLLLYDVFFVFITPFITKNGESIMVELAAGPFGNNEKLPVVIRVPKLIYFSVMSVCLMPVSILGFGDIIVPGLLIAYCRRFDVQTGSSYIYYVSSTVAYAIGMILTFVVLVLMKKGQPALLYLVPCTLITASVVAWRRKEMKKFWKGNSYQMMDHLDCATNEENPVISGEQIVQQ
UniProt O43609: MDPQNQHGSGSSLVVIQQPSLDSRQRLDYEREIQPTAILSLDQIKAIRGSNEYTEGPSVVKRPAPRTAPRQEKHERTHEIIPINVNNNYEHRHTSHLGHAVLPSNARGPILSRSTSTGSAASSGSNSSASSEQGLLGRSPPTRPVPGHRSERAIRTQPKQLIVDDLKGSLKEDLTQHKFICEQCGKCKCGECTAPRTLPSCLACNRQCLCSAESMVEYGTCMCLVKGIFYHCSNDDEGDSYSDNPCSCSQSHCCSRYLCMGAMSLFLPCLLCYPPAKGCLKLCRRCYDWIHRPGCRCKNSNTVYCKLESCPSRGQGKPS
UniProt P51571: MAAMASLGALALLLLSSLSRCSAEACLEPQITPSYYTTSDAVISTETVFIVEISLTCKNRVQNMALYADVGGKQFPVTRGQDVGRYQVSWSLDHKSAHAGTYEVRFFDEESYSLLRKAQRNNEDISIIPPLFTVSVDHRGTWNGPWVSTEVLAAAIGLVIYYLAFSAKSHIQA
UniProt Q8NBK3: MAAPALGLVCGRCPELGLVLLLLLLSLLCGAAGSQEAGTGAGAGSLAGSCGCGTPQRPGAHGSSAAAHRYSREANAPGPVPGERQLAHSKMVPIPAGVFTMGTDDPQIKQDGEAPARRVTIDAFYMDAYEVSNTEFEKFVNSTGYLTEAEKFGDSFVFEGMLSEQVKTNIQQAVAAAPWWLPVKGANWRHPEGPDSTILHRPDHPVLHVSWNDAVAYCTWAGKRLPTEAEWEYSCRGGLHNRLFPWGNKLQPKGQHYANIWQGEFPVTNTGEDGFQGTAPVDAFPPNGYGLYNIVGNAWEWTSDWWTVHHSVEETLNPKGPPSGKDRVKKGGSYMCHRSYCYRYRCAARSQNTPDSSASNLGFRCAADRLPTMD
UniProt P37837: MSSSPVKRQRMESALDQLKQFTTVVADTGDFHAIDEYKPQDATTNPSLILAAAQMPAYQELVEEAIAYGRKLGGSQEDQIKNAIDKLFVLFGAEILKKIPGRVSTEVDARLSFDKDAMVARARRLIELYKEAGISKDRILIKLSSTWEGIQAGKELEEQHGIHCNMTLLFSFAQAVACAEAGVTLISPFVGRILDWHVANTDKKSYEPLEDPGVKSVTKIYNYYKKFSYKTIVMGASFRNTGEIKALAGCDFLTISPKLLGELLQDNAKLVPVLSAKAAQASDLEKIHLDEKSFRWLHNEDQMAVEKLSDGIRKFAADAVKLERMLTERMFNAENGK
UniProt Q9Y2Z0: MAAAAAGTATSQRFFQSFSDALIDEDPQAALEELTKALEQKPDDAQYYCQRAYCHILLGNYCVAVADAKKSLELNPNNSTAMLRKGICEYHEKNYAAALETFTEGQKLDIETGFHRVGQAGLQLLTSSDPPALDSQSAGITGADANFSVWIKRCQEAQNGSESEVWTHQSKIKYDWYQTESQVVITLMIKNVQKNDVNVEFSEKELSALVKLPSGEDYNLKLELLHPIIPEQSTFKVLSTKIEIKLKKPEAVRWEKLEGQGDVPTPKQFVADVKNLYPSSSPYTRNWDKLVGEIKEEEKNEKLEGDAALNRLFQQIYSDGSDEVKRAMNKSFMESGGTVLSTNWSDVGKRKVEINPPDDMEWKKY
UniProt P16150: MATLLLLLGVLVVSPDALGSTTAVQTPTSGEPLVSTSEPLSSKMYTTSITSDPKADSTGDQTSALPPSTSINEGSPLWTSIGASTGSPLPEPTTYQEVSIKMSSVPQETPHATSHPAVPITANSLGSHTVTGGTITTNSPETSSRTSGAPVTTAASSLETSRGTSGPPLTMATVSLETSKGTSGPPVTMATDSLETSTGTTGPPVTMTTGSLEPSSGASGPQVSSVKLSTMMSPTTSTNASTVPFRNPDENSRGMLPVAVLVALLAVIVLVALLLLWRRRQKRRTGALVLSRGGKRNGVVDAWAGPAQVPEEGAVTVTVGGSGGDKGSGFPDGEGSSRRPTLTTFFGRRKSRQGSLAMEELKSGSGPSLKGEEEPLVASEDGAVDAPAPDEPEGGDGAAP
UniProt P18583: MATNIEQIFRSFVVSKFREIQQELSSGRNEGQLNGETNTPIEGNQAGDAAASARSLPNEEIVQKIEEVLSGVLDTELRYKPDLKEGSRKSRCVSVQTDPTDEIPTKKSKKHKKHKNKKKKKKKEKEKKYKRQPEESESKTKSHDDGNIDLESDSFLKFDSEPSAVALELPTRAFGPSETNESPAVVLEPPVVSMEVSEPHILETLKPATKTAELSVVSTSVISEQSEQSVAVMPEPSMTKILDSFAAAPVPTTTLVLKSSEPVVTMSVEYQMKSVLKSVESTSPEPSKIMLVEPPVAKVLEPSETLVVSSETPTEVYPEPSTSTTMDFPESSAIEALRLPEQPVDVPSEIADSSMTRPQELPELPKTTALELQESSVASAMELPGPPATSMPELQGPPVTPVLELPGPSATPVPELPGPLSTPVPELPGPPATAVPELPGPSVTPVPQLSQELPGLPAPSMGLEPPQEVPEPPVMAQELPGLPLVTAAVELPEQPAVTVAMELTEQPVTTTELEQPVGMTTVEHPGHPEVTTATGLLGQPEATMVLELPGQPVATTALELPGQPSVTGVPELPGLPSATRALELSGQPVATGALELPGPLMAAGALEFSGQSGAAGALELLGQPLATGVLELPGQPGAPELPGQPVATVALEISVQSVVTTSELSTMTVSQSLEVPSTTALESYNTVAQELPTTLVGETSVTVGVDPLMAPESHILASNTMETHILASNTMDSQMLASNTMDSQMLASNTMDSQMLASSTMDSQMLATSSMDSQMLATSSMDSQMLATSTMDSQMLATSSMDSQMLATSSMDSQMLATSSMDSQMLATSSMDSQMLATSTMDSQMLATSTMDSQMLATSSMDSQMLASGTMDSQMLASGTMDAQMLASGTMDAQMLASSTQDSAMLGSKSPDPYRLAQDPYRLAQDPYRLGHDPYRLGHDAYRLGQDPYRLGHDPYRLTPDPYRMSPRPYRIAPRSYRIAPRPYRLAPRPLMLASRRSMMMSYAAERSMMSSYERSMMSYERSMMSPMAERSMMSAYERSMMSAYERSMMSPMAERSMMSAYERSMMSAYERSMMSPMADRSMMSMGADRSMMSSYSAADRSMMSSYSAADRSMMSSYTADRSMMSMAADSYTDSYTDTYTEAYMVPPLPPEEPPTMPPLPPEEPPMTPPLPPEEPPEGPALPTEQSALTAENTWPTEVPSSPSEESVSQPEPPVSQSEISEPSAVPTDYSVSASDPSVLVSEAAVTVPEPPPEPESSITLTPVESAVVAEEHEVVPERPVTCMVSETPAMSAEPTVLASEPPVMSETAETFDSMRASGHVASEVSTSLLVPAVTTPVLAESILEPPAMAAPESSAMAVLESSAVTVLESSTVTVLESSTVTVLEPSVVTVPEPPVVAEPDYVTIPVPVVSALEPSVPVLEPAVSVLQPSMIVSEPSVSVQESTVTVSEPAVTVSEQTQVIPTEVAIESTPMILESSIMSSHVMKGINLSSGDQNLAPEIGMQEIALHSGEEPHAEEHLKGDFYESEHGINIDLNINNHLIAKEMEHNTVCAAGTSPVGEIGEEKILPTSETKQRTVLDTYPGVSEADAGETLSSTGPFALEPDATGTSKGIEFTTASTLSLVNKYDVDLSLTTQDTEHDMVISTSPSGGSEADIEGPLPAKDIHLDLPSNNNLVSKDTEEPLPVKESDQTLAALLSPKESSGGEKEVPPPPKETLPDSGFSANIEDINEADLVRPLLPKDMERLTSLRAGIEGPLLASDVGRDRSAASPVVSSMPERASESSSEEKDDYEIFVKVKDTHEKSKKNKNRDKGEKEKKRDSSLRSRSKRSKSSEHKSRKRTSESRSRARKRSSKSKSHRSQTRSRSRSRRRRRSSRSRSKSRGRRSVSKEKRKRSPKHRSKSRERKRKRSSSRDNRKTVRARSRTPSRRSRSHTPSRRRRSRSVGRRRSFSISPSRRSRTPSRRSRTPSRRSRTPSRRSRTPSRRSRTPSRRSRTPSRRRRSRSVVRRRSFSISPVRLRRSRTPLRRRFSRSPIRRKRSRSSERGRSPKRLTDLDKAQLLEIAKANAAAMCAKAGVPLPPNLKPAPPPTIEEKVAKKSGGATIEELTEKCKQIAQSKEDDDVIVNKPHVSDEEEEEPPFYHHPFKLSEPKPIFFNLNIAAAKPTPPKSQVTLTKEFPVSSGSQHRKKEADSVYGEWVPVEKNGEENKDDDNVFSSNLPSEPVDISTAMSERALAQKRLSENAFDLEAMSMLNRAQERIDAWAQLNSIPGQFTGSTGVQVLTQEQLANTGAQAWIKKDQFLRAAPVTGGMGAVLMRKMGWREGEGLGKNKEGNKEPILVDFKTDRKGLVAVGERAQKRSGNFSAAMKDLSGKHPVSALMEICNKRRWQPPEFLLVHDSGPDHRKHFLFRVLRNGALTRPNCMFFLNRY

The other results are listed elsewhere or left out.

Compound in this test: COc1ccc(Cn2ccc3cc(C)c(C(=O)NO)cc32)cc1
Briefly: dose-dependent thermal stabilisation call (2D-TPP, DLPTP, 10% FDR) (binary (1 = stabilised)); higher = stabilised by the compound. The conditions noted are these: system: HL-60 intact cells; concentration range 0.04-10 µM. The protocol:
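2D thermal proteome profiling in intact HL-60 cells treated with BRD-3811 (0, 0.04, 0.29, 2, 10 uM) for 90 min at 37 C, then heated 3 min at one of 12 temperatures (42-63.9 C). Soluble protein was quantified by TMT10 MS. The value is the DLPTP call of the paper: dose-dependent thermal stabilisation over all temperatures at 10% FDR (F-test of a dose-response against a flat model); one experiment, one call per tested protein.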
With SPAG9 (UniProt O60271), the “dose-dependent thermal stabilisation call” value was inactive: 0.

For STRAP (UniProt Q9Y3F4), the “dose-dependent thermal stabilisation call” value was inactive: 0.

With TAF9B (UniProt Q9HBM6), the “dose-dependent thermal stabilisation call” value is inactive: 0.

As to TCEB3 (UniProt Q14241), the “dose-dependent thermal stabilisation call” value is inactive: 0.

Regarding SPC24 (UniProt Q8NBT2), the “dose-dependent thermal stabilisation call” value is inactive: 0.

Consider SPTLC1 (UniProt O15269), for which the “dose-dependent thermal stabilisation call” value is inactive: 0.

For SRRM1 (UniProt Q8IYB3), the “dose-dependent thermal stabilisation call” value is inactive: 0.

In the case of TBK1 (UniProt Q9UHD2), the “dose-dependent thermal stabilisation call” value is inactive: 0.

As to TGFBRAP1 (UniProt Q8WUH2), the “dose-dependent thermal stabilisation call” value was inactive: 0.

As for STMN1 (UniProt P16949), the “dose-dependent thermal stabilisation call” value was inactive: 0.

For the target TFR2 (UniProt Q9UP52), the “dose-dependent thermal stabilisation call” value is inactive: 0.

As for STK4 (UniProt Q13043), the “dose-dependent thermal stabilisation call” value is inactive: 0.

In the case of STUB1 (UniProt Q9UNE7), the “dose-dependent thermal stabilisation call” value is inactive: 0.

Consider STAP1 (UniProt Q9ULZ2), for which the “dose-dependent thermal stabilisation call” value was inactive: 0.

Consider SPPL2A (UniProt Q8TCT8), for which the “dose-dependent thermal stabilisation call” value is inactive: 0.

As for SPRY1 (UniProt O43609), the “dose-dependent thermal stabilisation call” value is inactive: 0.

Turning to SPINT1 (UniProt O43278), the “dose-dependent thermal stabilisation call” value was inactive: 0.

For the target SP100 (UniProt P23497), the “dose-dependent thermal stabilisation call” value is inactive: 0.

Turning to SUPT5H (UniProt O00267), the “dose-dependent thermal stabilisation call” value is inactive: 0.

For STK11IP (UniProt Q8N1F8), the “dose-dependent thermal stabilisation call” value was inactive: 0.

Turning to SSR4 (UniProt P51571), the “dose-dependent thermal stabilisation call” value was inactive: 0.

Turning to TBP (UniProt P20226), the “dose-dependent thermal stabilisation call” value is inactive: 0.

Regarding SUMF1 (UniProt Q8NBK3), the “dose-dependent thermal stabilisation call” value was inactive: 0.

With TERF2 (UniProt Q15554), the “dose-dependent thermal stabilisation call” value was inactive: 0.

With TGDS (UniProt O95455), the “dose-dependent thermal stabilisation call” value was inactive: 0.

On to STX8 (UniProt Q9UNK0), for which the “dose-dependent thermal stabilisation call” value is inactive: 0.

With SRBD1 (UniProt Q8N5C6), the “dose-dependent thermal stabilisation call” value is inactive: 0.

With TALDO1 (UniProt P37837), the “dose-dependent thermal stabilisation call” value is inactive: 0.

In the case of SUGT1 (UniProt Q9Y2Z0), the “dose-dependent thermal stabilisation call” value is inactive: 0.

Turning to SRP72 (UniProt O76094), the “dose-dependent thermal stabilisation call” value was inactive: 0.

Turning to SPATA5 (UniProt Q8NB90), the “dose-dependent thermal stabilisation call” value was inactive: 0.

For the target SQSTM1 (UniProt Q13501), the “dose-dependent thermal stabilisation call” value is inactive: 0.

SPN (UniProt P16150): the “dose-dependent thermal stabilisation call” value was inactive: 0.

In the case of STAT2 (UniProt P52630), the “dose-dependent thermal stabilisation call” value is inactive: 0.

Take SON (UniProt P18583): the “dose-dependent thermal stabilisation call” value is inactive: 0.

As to TAF8 (UniProt Q7Z7C8), the “dose-dependent thermal stabilisation call” value is inactive: 0.
